Source: PubChem BioAssay AID248 (DTP/NCI, 2004)
The list shows only some results of the screen, not a fair sample: it is rich in T/C values a quarter to a half above the control, in often repeated tests (any T/C) and in doses without a T/C. Further doses and runs are listed elsewhere. T/C: endpoint of the treated group in % of that of the vehicle group. Some entries give survivors of the animals treated and no T/C: the source holds a T/C of zero for them, seemingly a mark for toxic or unscored doses. Some survivor counts are full or nearly so, which does not show that the dose was tolerated: survival well below the control is almost never listed, so the zero probably covers shortened survival too. Survivors were counted at the toxicity check, usually on the fifth day, unless a day is given; later deaths do not show. Schedules are NCI's codes, taken here to give the interval after Q, in days (D) or hours (H), and the number of doses after X. Where survival is the endpoint, the PubChem record calls one and a half times the control and up active, and a quarter to a half above the control has no call in these data; cut-offs in other NCI protocols can differ. Some entries were tested several times; their values stand side by side, smallest first. Some T/C values are followed by the survivors on the day toxicity was checked, most often the fifth; where none is given, no animal had died by that day.

System: L1210 leukemia ip in BDF1 mice, survival T/C
Assay: NCI In Vivo Anticancer Drug Screen. Data for tumor model L1210 Leukemia (intraperitoneal) in B6D2F1 (BDF1) mice
Conditions: T/C endpoint: mean survival time, higher T/C = longer survival
[1] = dose: 200.0 mg/kg/injection, schedule: Q01DX009 (ip), vehicle: Klucel (hydroxypropylcellulose) (HPC)
[2] = dose: 400.0 mg/kg/injection, schedule: Q04DX003 (ip), vehicle: Klucel (hydroxypropylcellulose) (HPC)
[3] = dose: 100.0 mg/kg/injection, schedule: Q04DX003 (ip), vehicle: Klucel (hydroxypropylcellulose) (HPC)
[4] = dose: 200.0 mg/kg/injection, schedule: Q04DX003 (ip), vehicle: Klucel (hydroxypropylcellulose) (HPC)
[5] = dose: 100.0 mg/kg/injection, schedule: Q01DX009 (ip), vehicle: Klucel (hydroxypropylcellulose) (HPC)
[6] = dose: 200.0 mg/kg/injection, schedule: Q01DX001 (ip), vehicle: Klucel (hydroxypropylcellulose) (HPC)
[7] = dose: 400.0 mg/kg/injection, schedule: Q01DX001 (ip), vehicle: Klucel (hydroxypropylcellulose) (HPC)
[8] = dose: 200.0 mg/kg/injection, schedule: Q04DX003 (ip), vehicle: saline
[9] = dose: 400.0 mg/kg/injection, schedule: Q04DX003 (ip), vehicle: saline

SMILES: CC(C)(C)OOC(=O)c1ccccc1O
- survivor count (dose: 200.0 mg/kg/injection, schedule: Q01DX009 (ip), vehicle: saline sonified): 5 of 6
- survivor count (dose: 400.0 mg/kg/injection, schedule: Q01DX009 (ip), vehicle: saline sonified): 0 of 6

SMILES: CCCCCCCCCCCCCCCCCCNC(=S)N/N=C/c1ccc(Cl)cc1Cl
- survivor count (dose: 100.0 mg/kg/injection, schedule: Q01DX001 (ip), vehicle: other): 6 of 6
- survivor count (dose: 400.0 mg/kg/injection, schedule: Q01DX001 (ip), vehicle: other): 6 of 6

SMILES: Cc1sc([N+](=O)[O-])cc1[N+](=O)[O-]
- survivor count [1]: 2 of 6
- survivor count [2]: 1 of 6

SMILES: ClC(Cl)=C(Cl)C(Cl)=C(Cl)Cl
- survivor count (dose: 25.0 mg/kg/injection, schedule: Q04DX003 (ip), vehicle: Klucel (hydroxypropylcellulose) (HPC)): 0 of 6
- survivor count (dose: 50.0 mg/kg/injection, schedule: Q04DX003 (ip), vehicle: Klucel (hydroxypropylcellulose) (HPC)): 0 of 6
- survivor count [3]: 0 of 6
- survivor count (dose: 200.0 mg/kg/injection, schedule: Q04DX003 (ip), vehicle: carboxymethylcellulose (CMC)): 2 of 6
- survivor count (dose: 400.0 mg/kg/injection, schedule: Q04DX003 (ip), vehicle: carboxymethylcellulose (CMC)): 0 of 6

SMILES: Cc1nc(Cl)c(CO)c(CO)c1O
- survivor count [3]: 0 of 6
- survivor count [4]: 0 of 6
- survivor count [2]: 0 of 6

SMILES: NNS(=O)(=O)Cc1ccccc1
- survivor count (dose: 400.0 mg/kg/injection, schedule: Q01DX001 (ip), vehicle: saline): 3 of 6

SMILES: Nc1ccc(S(=O)(=O)F)cc1N
- survivor count (dose: 400.0 mg/kg/injection, schedule: Q01DX009 (ip), vehicle: acetone): 1 of 6

SMILES: CC(=O)n1c(COS(C)(=O)=O)nc2ccccc21
- survivor count (dose: 100.0 mg/kg/injection, schedule: Q01DX001 (ip), vehicle: carboxymethylcellulose (CMC)): 1 of 6
- survivor count (dose: 200.0 mg/kg/injection, schedule: Q01DX001 (ip), vehicle: carboxymethylcellulose (CMC)): 0 of 6
- survivor count (dose: 400.0 mg/kg/injection, schedule: Q01DX001 (ip), vehicle: carboxymethylcellulose (CMC)): 0 of 6

SMILES: CC[n+]1ccc(Nc2ccc(NC(=O)c3ccc(Nc4cc[n+](CC)c5ccc([N+](=O)[O-])cc45)cc3)cc2)cc1
- T/C (dose: 6.25 mg/kg/injection, schedule: Q01DX009 (ip), vehicle: saline sonified): 138 % of control
- T/C (dose: 7.0 mg/kg/injection, schedule: Q01DX009 (ip), vehicle: Klucel (hydroxypropylcellulose) (HPC)): 130 % of control
- T/C (dose: 11.0 mg/kg/injection, schedule: Q01DX009 (ip), vehicle: Klucel (hydroxypropylcellulose) (HPC)): 130 and 132 % of control
- T/C (dose: 12.5 mg/kg/injection, schedule: Q01DX009 (ip), vehicle: Klucel (hydroxypropylcellulose) (HPC)): 145 % of control [5 of 6 alive]
- T/C (dose: 12.5 mg/kg/injection, schedule: Q01DX009 (ip), vehicle: saline sonified): 141 % of control
- T/C (dose: 15.66 mg/kg/injection, schedule: Q01DX009 (ip), vehicle: saline with Tween-80): 128 % of control
- T/C (dose: 16.5 mg/kg/injection, schedule: Q01DX009 (ip), vehicle: saline): 146 % of control
- T/C (dose: 23.5 mg/kg/injection, schedule: Q01DX009 (ip), vehicle: saline with Tween-80): 140 % of control
- T/C (dose: 25.0 mg/kg/injection, schedule: Q01DX009 (ip), vehicle: Klucel (hydroxypropylcellulose) (HPC)): 132 % of control
- survivor count (dose: 37.5 mg/kg/injection, schedule: Q01DX009 (ip), vehicle: Klucel (hydroxypropylcellulose) (HPC)): 3 of 6
- survivor count (dose: 50.0 mg/kg/injection, schedule: Q01DX001 (ip), vehicle: Klucel (hydroxypropylcellulose) (HPC)): 0 of 6
- T/C (dose: 50.0 mg/kg/injection, schedule: Q01DX009 (ip), vehicle: Klucel (hydroxypropylcellulose) (HPC)): 137 % of control
- survivor count (dose: 100.0 mg/kg/injection, schedule: Q01DX001 (ip), vehicle: Klucel (hydroxypropylcellulose) (HPC)): 0 of 6
- survivor count [5]: 2 of 6
- survivor count [6]: 0 of 6
- survivor count [7]: 0 of 6

SMILES: O=[N+]([O-])c1cc(Cl)ccc1S(=O)(=O)c1ccccc1
- survivor count [5]: 6 of 6
- survivor count [1]: 6 of 6
- survivor count (dose: 400.0 mg/kg/injection, schedule: Q01DX009 (ip), vehicle: Klucel (hydroxypropylcellulose) (HPC)): 6 of 6

SMILES: C=C/C=C/CCN1CC1
- survivor count [3]: 0 of 6
- survivor count [4]: 0 of 6
- survivor count [2]: 0 of 6

SMILES: O=NN(CCCl)C(=O)NC1CCSc2ccccc21 (stereo unspecified)
- T/C (dose: 12.0 mg/kg/injection, schedule: Q01DX001 (ip), vehicle: other): 145 % of control
- survivor count (dose: 93.0 mg/kg/injection, schedule: Q01DX001 (ip), vehicle: other): 6 of 6
- T/C (dose: 135.0 mg/kg/injection, schedule: Q01DX001 (ip), vehicle: other): 142 % of control [9 of 10 alive]
- survivor count (dose: 200.0 mg/kg/injection, schedule: Q01DX001 (ip), vehicle: other): 6 of 10
- survivor count (dose: 250.0 mg/kg/injection, schedule: Q01DX001 (ip), vehicle: other): 0 of 6
- survivor count (dose: 375.0 mg/kg/injection, schedule: Q01DX001 (ip), vehicle: other): 0 of 6

SMILES: O=[N+]([O-])c1ccc(N/N=C/C#Cc2ccccc2)c([N+](=O)[O-])c1
- survivor count (dose: 100.0 mg/kg/injection, schedule: Q04DX002 (ip), vehicle: saline with Tween-80): 3 of 3
- survivor count (dose: 200.0 mg/kg/injection, schedule: Q04DX002 (ip), vehicle: saline with Tween-80): 3 of 3

SMILES: O=NN(CCCl)C(=O)NCCc1cccc[n+]1[O-]
- T/C (dose: 50.0 mg/kg/injection, schedule: Q01DX001 (ip), vehicle: water): 128 % of control
- survivor count (dose: 100.0 mg/kg/injection, schedule: Q01DX001 (ip), vehicle: water): 6 of 6

SMILES: CN(C1=CC(=O)C(=O)c2ccccc21)c1ccccc1
- survivor count [7]: 0 of 6

SMILES: COC(=O)C1Cc2c([nH]c3ccccc23)CN1 (stereo unspecified)
- survivor count (dose: 75.0 mg/kg/injection, schedule: Q04DX003 (ip), vehicle: saline): 3 of 6
- survivor count (dose: 150.0 mg/kg/injection, schedule: Q04DX003 (ip), vehicle: saline): 1 of 6
- survivor count (dose: 300.0 mg/kg/injection, schedule: Q04DX003 (ip), vehicle: saline): 1 of 6

SMILES: CC1CC(C)S(=O)(=O)C1 (stereo unspecified)
- survivor count (dose: 100.0 mg/kg/injection, schedule: Q01DX001 (ip), vehicle: saline): 0 of 6

SMILES: CC(C)C(NC(=O)C(F)(F)F)C(=O)O (stereo unspecified)
- survivor count (dose: 350.0 mg/kg/injection, schedule: Q04DX003 (ip), vehicle: saline): 0 of 6

SMILES: CCNC(Cc1ccccc1)c1ccc(OC)cc1 (stereo unspecified)
- survivor count [5]: 3 of 6
- survivor count [4]: 0 of 6
- survivor count [2]: 0 of 6

SMILES: CCOC(=O)/C(C#N)=C/NN
- survivor count (dose: 100.0 mg/kg/injection, schedule: Q04DX003 (ip), vehicle: saline): 0 of 4
- survivor count [8]: 0 of 4
- survivor count [9]: 0 of 4

SMILES: O=C1OC(=O)C2C3OC(C(Br)C3Br)C12 (stereo unspecified)
- survivor count [8]: 1 of 6
- survivor count [9]: 0 of 6

SMILES: CC(=O)OCC1CCC(NC(=O)N(CCCl)N=O)CC1 (stereo unspecified)
- T/C (dose: 60.0 mg/kg/injection, schedule: Q01DX001 (ip), vehicle: Klucel (hydroxypropylcellulose) (HPC)): 133 % of control
- survivor count (dose: 90.0 mg/kg/injection, schedule: Q01DX001 (ip), vehicle: Klucel (hydroxypropylcellulose) (HPC)): 10 of 10
- survivor count (dose: 134.0 mg/kg/injection, schedule: Q01DX001 (ip), vehicle: Klucel (hydroxypropylcellulose) (HPC)): 10 of 10
- survivor count [6]: 10 of 10
- survivor count (dose: 300.0 mg/kg/injection, schedule: Q01DX001 (ip), vehicle: Klucel (hydroxypropylcellulose) (HPC)): 2 of 10

SMILES: O=C(O)CSc1cc(Cl)ccc1Cl
- survivor count (dose: 400.0 mg/kg/injection, schedule: Q04DX002 (ip), vehicle: Klucel (hydroxypropylcellulose) (HPC)): 0 of 3
